Experimental data reported in the supplement of paper PMC6411743.
± gives the standard deviation of the averaged measurements. The entries are a selection whose mix differs from that of the whole data set.

Amino acid sequences for entries named in this document (tags omitted). A change or cut given only in a name is not applied to a line headed by its entry.
UniProt Q93008, whole entry: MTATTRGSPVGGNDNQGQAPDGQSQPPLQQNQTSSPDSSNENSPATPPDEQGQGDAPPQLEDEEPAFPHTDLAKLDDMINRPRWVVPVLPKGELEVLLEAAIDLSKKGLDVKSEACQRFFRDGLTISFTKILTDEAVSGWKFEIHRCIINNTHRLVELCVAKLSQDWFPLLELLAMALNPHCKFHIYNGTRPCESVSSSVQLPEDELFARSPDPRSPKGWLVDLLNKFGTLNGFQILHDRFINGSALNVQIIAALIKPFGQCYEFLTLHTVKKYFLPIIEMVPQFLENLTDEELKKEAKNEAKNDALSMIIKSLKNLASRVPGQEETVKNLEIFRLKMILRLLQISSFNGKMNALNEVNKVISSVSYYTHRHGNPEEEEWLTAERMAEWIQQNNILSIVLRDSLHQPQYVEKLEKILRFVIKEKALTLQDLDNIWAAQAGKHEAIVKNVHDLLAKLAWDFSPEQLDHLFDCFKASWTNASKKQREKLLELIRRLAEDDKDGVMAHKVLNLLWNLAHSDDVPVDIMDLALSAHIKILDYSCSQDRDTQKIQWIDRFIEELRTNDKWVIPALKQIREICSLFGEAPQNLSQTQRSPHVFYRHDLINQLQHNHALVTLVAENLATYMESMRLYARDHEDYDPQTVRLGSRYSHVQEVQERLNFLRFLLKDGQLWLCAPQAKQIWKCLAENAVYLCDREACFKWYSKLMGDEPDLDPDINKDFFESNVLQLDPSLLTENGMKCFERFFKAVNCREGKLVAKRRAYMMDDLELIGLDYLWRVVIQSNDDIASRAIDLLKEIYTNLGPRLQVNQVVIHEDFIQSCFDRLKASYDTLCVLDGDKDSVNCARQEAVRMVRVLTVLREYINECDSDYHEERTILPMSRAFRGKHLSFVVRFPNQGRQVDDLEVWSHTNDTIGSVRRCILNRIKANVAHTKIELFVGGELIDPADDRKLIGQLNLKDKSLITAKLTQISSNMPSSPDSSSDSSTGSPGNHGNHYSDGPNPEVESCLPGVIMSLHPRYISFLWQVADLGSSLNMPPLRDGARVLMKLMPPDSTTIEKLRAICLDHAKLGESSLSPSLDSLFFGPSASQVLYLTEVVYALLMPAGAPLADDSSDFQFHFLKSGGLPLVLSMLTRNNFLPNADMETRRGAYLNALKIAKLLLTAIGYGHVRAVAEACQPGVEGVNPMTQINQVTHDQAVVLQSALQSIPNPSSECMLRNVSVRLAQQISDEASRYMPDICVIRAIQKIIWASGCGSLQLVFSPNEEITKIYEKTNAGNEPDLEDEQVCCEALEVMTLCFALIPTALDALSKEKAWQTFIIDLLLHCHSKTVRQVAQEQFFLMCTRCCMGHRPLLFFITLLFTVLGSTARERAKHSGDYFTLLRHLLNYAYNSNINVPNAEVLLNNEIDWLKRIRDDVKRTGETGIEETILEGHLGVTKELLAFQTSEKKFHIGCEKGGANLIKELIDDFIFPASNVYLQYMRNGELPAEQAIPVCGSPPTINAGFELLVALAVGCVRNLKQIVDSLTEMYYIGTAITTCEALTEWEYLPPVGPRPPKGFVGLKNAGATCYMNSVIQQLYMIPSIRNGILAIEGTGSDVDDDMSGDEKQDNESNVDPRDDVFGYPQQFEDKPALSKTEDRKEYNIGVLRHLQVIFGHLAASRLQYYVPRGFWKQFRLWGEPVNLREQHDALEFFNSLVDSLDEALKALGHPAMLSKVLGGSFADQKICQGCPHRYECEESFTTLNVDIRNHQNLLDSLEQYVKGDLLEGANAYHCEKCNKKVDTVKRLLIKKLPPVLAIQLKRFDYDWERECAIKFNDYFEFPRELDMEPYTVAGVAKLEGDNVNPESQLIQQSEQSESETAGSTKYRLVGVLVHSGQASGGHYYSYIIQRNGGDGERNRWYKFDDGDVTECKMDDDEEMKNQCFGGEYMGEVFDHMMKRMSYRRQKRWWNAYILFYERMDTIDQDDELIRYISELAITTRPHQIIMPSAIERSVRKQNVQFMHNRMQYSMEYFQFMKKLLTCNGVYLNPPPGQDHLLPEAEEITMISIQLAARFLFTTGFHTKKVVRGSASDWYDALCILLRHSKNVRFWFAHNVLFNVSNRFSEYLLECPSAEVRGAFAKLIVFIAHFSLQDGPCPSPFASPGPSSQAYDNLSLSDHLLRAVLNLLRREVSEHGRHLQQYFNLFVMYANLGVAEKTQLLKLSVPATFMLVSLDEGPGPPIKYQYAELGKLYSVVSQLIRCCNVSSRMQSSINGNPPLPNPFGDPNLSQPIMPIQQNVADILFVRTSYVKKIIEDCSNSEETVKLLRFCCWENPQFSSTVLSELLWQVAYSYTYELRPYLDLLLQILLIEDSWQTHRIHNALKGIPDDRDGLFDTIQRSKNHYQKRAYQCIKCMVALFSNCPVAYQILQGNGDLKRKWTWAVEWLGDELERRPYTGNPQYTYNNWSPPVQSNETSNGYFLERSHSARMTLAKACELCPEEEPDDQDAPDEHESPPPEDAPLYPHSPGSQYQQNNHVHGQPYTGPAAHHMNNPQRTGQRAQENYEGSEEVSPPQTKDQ
UniProt Q8WV93: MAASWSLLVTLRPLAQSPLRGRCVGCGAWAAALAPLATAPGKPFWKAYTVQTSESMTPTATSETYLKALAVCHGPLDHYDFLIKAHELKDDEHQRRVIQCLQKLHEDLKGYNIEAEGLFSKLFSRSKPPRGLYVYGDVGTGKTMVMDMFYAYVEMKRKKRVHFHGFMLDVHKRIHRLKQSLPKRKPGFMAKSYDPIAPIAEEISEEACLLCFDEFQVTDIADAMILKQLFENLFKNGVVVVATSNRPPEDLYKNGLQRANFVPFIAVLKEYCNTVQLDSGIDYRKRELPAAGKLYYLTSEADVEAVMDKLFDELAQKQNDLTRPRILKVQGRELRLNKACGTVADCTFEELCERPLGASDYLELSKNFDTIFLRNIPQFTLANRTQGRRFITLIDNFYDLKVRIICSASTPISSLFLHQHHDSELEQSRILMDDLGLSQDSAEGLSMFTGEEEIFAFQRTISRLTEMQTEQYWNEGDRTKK
UniProt Q92599: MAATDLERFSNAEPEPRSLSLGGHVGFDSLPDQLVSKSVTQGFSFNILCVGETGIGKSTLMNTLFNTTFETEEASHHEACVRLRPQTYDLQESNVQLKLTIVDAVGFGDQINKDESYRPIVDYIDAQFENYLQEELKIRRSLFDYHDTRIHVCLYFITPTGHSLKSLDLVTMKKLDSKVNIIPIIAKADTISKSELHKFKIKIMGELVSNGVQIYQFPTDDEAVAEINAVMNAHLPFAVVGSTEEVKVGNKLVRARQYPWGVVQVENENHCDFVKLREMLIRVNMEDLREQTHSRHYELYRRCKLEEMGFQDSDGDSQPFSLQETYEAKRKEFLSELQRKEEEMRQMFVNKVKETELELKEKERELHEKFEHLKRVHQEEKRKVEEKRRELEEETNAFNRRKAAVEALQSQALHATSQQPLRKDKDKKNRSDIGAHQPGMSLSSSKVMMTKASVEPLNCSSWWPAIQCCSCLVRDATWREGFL
UniProt Q92609: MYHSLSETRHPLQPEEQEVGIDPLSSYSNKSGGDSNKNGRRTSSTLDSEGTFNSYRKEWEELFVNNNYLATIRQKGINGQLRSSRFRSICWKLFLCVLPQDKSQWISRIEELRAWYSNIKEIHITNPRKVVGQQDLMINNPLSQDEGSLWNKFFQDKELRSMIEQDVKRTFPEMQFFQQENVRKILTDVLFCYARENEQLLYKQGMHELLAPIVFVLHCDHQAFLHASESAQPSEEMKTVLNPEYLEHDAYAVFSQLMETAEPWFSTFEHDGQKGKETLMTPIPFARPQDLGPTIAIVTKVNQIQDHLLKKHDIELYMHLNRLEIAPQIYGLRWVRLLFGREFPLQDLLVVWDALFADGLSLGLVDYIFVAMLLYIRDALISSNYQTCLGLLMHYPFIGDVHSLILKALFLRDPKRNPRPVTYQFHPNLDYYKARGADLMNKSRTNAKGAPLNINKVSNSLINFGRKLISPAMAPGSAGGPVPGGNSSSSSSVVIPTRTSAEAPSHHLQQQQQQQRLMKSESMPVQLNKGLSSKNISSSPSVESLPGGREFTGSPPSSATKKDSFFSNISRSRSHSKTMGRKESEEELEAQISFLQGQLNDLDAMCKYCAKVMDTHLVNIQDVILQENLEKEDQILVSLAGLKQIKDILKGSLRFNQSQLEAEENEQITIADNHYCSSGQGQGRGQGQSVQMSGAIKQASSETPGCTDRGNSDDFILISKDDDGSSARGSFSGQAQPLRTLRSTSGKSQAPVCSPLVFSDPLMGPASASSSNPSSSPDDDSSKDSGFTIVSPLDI
UniProt Q92618: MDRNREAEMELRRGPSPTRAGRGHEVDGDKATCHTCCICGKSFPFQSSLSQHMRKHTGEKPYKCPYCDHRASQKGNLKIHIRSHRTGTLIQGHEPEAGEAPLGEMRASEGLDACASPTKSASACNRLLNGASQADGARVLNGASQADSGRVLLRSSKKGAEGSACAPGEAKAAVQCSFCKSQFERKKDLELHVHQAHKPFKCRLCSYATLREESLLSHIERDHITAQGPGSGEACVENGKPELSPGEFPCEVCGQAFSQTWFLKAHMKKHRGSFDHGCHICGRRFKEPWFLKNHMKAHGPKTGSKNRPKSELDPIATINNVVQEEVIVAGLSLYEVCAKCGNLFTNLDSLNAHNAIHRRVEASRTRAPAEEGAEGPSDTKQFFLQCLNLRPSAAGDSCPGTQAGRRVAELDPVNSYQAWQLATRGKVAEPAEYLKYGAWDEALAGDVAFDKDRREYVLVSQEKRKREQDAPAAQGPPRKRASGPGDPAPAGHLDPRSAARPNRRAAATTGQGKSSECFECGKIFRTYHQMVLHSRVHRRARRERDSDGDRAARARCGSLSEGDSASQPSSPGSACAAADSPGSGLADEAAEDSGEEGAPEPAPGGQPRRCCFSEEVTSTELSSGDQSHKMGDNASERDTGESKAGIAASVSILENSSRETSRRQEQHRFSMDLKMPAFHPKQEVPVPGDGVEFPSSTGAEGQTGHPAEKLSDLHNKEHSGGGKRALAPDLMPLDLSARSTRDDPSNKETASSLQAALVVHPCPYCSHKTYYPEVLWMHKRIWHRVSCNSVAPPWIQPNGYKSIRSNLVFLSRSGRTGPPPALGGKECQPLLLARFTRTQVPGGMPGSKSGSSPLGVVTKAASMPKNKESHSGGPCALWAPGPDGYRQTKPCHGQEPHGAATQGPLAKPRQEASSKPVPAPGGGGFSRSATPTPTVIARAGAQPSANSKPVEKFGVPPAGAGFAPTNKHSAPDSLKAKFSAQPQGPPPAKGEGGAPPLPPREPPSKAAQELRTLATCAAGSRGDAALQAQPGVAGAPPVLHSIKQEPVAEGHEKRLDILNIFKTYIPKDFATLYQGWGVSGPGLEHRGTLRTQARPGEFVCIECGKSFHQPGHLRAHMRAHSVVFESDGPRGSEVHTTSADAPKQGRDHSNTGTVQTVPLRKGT
UniProt Q8TBX8: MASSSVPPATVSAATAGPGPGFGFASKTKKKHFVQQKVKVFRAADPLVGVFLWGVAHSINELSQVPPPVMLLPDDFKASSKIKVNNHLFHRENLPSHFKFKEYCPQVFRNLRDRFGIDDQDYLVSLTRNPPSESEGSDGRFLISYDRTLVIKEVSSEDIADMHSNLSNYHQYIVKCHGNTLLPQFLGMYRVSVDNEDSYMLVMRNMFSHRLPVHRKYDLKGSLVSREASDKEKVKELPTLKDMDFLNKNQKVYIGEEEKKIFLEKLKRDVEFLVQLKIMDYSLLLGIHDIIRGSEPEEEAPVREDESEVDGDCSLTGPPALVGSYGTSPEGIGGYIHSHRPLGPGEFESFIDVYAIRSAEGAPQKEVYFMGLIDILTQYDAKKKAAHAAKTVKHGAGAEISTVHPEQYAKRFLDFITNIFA
UniProt Q8WVJ2: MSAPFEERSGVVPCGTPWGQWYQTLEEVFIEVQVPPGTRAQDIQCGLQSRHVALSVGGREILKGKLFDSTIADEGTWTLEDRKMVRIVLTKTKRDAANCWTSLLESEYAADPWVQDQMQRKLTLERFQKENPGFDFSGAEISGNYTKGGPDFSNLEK
UniProt Q92747, whole entry: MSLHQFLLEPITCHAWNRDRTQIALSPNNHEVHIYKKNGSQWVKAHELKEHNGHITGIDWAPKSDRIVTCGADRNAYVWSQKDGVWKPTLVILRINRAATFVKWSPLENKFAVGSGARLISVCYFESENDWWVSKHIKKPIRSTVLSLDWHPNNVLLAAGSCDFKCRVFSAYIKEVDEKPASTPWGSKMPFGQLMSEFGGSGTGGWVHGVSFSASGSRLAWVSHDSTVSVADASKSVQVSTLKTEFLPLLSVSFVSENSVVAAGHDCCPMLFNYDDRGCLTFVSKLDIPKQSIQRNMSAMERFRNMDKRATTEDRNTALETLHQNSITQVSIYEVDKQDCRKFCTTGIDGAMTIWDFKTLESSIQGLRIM
UniProt Q8WVK2: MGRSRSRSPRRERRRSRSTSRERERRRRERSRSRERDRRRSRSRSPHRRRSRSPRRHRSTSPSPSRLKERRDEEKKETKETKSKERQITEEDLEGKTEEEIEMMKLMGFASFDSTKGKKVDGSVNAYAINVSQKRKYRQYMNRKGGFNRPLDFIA

Compound: Nc1ncnc2c1ncn2[C@@H]1O[C@H](COP(=O)(O)OP(=O)(O)OP(=O)(O)O)[C@@H](O)[C@H]1O [adenosine triphosphate]
Assay: NP40-soluble protein abundance relative to vehicle (solubility fold change) (ratio); higher = more soluble protein in presence of ATP
How it was run: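 Each value is a fold change relative to the detergent-processed vehicle, calculated per replicate from vsn-normalised intensities. Jurkat crude lysate received eight concentrations (0.1 to 10 mM) for 10 min at room temperature and 3 min at 37 °C, then was solubilised in 0.8% NP40 with benzonase (60 min, 4 °C). The ultracentrifuged supernatant was TMT-labelled and run by LC-MS/MS in three independent experiments.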

Target	NP40-soluble protein abundance (concentration: 1mM)	NP40-soluble protein abundance (concentration: 2mM)	NP40-soluble protein abundance (concentration: 4mM)	NP40-soluble protein abundance (concentration: 6mM)	NP40-soluble protein abundance (concentration: 8mM)	NP40-soluble protein abundance (concentration: 10mM)
MAML1 (UniProt Q92585)	0.955 ± 0.077	0.94 ± 0.062	0.974 ± 0.043	0.968 ± 0.033	0.954 ± 0.11	0.923 ± 0.11
PIGK (UniProt Q92643)	1.03 ± 0.18	1.06 ± 0.059	1.02 ± 0.16	1.02 ± 0.07	1.03 ± 0.18	1.09 ± 0.07
ISL2 (UniProt Q96A47)	0.963 ± 0.078	1.03 ± 0.065	0.986 ± 0.087	0.897 ± 0.1	0.932 ± 0.043	1.01 ± 0.11
UniProt Q93008 and related entries	1.03 ± 0.061	1.01 ± 0.041	1.02 ± 0.021	0.929 ± 0.067	1.05 ± 0.023	1.02 ± 0.033
UniProt Q8WV93	0.911 ± 0.047	0.877 ± 0.056	0.799 ± 0.076	0.89 ± 0.087	0.811 ± 0.11	0.828 ± 0.13
UniProt Q8TE82	0.932 ± 0.083	0.925 ± 0.027	0.916 ± 0.049	0.904 ± 0.1	0.984 ± 0.12	0.966 ± 0.026
UniProt Q92997 and related entries	0.968 ± 0.05	1.07 ± 0.084	1.06 ± 0.17	0.98 ± 0.053	1.03 ± 0.012	1.04 ± 0.035
CHAC2 (UniProt Q8WUX2)	0.994 ± 0.12	1.03 ± 0.032	1.06 ± 0.035	0.954 ± 0.079	0.997 ± 0.034	0.975 ± 0.059
CCDC102A (UniProt Q96A19)	0.973 ± 0.087	0.944 ± 0.17	0.937 ± 0.09	0.928 ± 0.11	0.943 ± 0.099	1.1 ± 0.13
UniProt Q92599	1.07 ± 0.13	1.02 ± 0.14	0.996 ± 0.067	1.02 ± 0.17	1.02 ± 0.078	0.958 ± 0.052
UniProt Q92609 and related entries	0.986 ± 0.03	0.976 ± 0.016	0.974 ± 0.021	1.01 ± 0.011	0.97 ± 0.019	0.975 ± 0.028
UniProt Q8TDH9	0.964 ± 0.1	0.89 ± 0.021	0.908 ± 0.081	0.858 ± 0.13	0.923 ± 0.053	0.791 ± 0.12
ZNF516 (UniProt Q92618)	1.04 ± 0.051	1.07 ± 0.069	0.996 ± 0.1	1.1 ± 0.046	1.04 ± 0.18	1.07 ± 0.034
UniProt Q8TCC3 and related entries	0.982 ± 0.099	0.89 ± 0.2	0.867 ± 0.19	0.862 ± 0.29	0.855 ± 0.23	0.823 ± 0.21
NUP205 (UniProt Q92621)	1.03 ± 0.12	1.04 ± 0.096	1.05 ± 0.088	0.976 ± 0.11	1.12 ± 0.095	1.11 ± 0.051
CCDC47 (UniProt Q96A33)	0.996 ± 0.035	0.989 ± 0.023	0.987 ± 0.0099	0.977 ± 0.023	1.01 ± 0.023	0.993 ± 0.025
UniProt Q8WUW1 and related entries	0.856 ± 0.12	0.818 ± 0.13	0.821 ± 0.099	0.904 ± 0.14	0.776 ± 0.13	0.81 ± 0.17
UniProt Q8WYL5	1.01 ± 0.051	0.854 ± 0.1	0.826 ± 0.025	0.921 ± 0.038	0.775 ± 0.059	0.87 ± 0.075
UniProt Q92623	0.953 ± 0.096	0.948 ± 0.092	0.979 ± 0.02	0.976 ± 0.042	0.956 ± 0.045	0.895 ± 0.13
UniProt Q8TBX8 and related entries	1.05 ± 0.047	1.07 ± 0.053	1.08 ± 0.032	1.02 ± 0.079	1.08 ± 0.05	1.02 ± 0.019

Target	NP40-soluble protein abundance (concentration: 1mM)	NP40-soluble protein abundance (concentration: 2mM)	NP40-soluble protein abundance (concentration: 4mM)	NP40-soluble protein abundance (concentration: 6mM)	NP40-soluble protein abundance (concentration: 8mM)	NP40-soluble protein abundance (concentration: 10mM)
BRI3BP (UniProt Q8WY22)	0.959 ± 0.14	1.01 ± 0.12	1.05 ± 0.11	1.01 ± 0.12	0.975 ± 0.082	1.02 ± 0.14
PCNP (UniProt Q8WW12)	0.923 ± 0.095	0.947 ± 0.081	0.903 ± 0.032	0.975 ± 0.11	0.879 ± 0.03	0.847 ± 0.11
DOCK2 (UniProt Q92608)	1.17 ± 0.12	1.14 ± 0.088	1.14 ± 0.072	1.07 ± 0.089	1.21 ± 0.054	1.13 ± 0.032
THAP4 (UniProt Q8WY91)	1.05 ± 0.034	0.971 ± 0.029	0.973 ± 0.097	1.02 ± 0.09	0.989 ± 0.051	0.955 ± 0.044
SMG7 (UniProt Q92540)	0.91 ± 0.075	0.961 ± 0.041	0.957 ± 0.071	0.999 ± 0.097	0.959 ± 0.059	0.992 ± 0.048
L3MBTL2 (UniProt Q969R5)	1.07 ± 0.068	1.05 ± 0.054	1.1 ± 0.065	1.02 ± 0.021	1.11 ± 0.048	1.15 ± 0.057
MZB1 (UniProt Q8WU39)	0.938 ± 0.13	0.9 ± 0.12	0.906 ± 0.053	0.9 ± 0.13	0.918 ± 0.018	0.844 ± 0.092
UBA3 (UniProt Q8TBC4)	0.996 ± 0.11	1 ± 0.089	1 ± 0.094	0.965 ± 0.099	0.986 ± 0.091	0.994 ± 0.079
GCDH (UniProt Q92947)	0.937 ± 0.059	0.938 ± 0.031	0.925 ± 0.015	0.895 ± 0.041	0.936 ± 0.024	0.947 ± 0.022
NEK9 (UniProt Q8TD19)	0.978 ± 0.023	0.982 ± 0.021	0.9811 ± 0.004	0.936 ± 0.022	0.967 ± 0.011	0.978 ± 0.021
SLC44A1 (UniProt Q8WWI5)	0.957 ± 0.054	0.955 ± 0.032	0.935 ± 0.025	0.928 ± 0.06	0.944 ± 0.03	0.901 ± 0.026
UniProt Q969H6 and related entries	0.899 ± 0.15	1.02 ± 0.22	0.989 ± 0.096	0.8537 ± 0.0039	1.04 ± 0.067	1.08 ± 0.12
LRRC59 (UniProt Q96AG4)	0.848 ± 0.19	0.925 ± 0.029	0.955 ± 0.023	0.995 ± 0.065	0.988 ± 0.046	0.924 ± 0.13
KBTBD7 (UniProt Q8WVZ9)	1.12 ± 0.045	1.09 ± 0.034	1.11 ± 0.025	1.03 ± 0.1	1.06 ± 0.0024	1.03 ± 0.015
RNASEH2C (UniProt Q8TDP1)	0.975 ± 0.046	0.966 ± 0.033	0.923 ± 0.018	0.927 ± 0.057	0.923 ± 0.043	0.914 ± 0.054
CCDC12 (UniProt Q8WUD4)	0.882 ± 0.11	0.863 ± 0.065	0.829 ± 0.095	0.847 ± 0.12	0.881 ± 0.03	0.727 ± 0.26
PI4K2B (UniProt Q8TCG2)	1.01 ± 0.094	0.978 ± 0.13	1.05 ± 0.17	0.946 ± 0.13	0.991 ± 0.072	0.922 ± 0.12
ZKSCAN4 (UniProt Q969J2)	1.03 ± 0.1	1.132 ± 0.0066	1.04 ± 0.011	1.03 ± 0.034	1.13 ± 0.097	1.159 ± 0.0075
NUDCD2 (UniProt Q8WVJ2)	0.983 ± 0.057	0.967 ± 0.013	0.963 ± 0.035	1.03 ± 0.051	0.95 ± 0.073	0.885 ± 0.035
ZUP1 (UniProt Q96AP4)	0.957 ± 0.06	0.991 ± 0.063	0.951 ± 0.1	0.947 ± 0.088	0.967 ± 0.072	0.953 ± 0.055

Target	NP40-soluble protein abundance (concentration: 1mM)	NP40-soluble protein abundance (concentration: 2mM)	NP40-soluble protein abundance (concentration: 4mM)	NP40-soluble protein abundance (concentration: 6mM)	NP40-soluble protein abundance (concentration: 8mM)	NP40-soluble protein abundance (concentration: 10mM)
UniProt Q92674	1.1 ± 0.15	1.04 ± 0.2	1.3 ± 0.35	1.17 ± 0.37	1.35 ± 0.62	1.29 ± 0.38
NDRG1 (UniProt Q92597)	0.934 ± 0.027	0.947 ± 0.032	0.924 ± 0.082	0.999 ± 0.086	0.93 ± 0.063	0.943 ± 0.095
ARPC1A (UniProt Q92747)	1.01 ± 0.15	1.05 ± 0.12	1.05 ± 0.1	0.939 ± 0.11	1.01 ± 0.038	1.03 ± 0.038
UniProt Q969H8	0.985 ± 0.13	1.01 ± 0.095	0.975 ± 0.094	0.969 ± 0.11	0.949 ± 0.054	0.97 ± 0.052
ZNF384 (UniProt Q8TF68)	1.02 ± 0.065	1.05 ± 0.071	1.01 ± 0.098	1 ± 0.046	0.963 ± 0.058	0.986 ± 0.085
UniProt Q92796-2|Q92796-3	1.05 ± 0.034	1.03 ± 0.044	0.995 ± 0.03	0.992 ± 0.046	0.998 ± 0.063	0.975 ± 0.022
UniProt Q8TBF2-6|A0A0A0MT35|Q8TBF2-8	1 ± 0.056	0.982 ± 0.068	1.01 ± 0.03	0.922 ± 0.062	0.976 ± 0.063	0.986 ± 0.025
CHMP7 (UniProt Q8WUX9)	0.977 ± 0.055	0.967 ± 0.046	0.933 ± 0.028	0.9584 ± 0.0079	0.91 ± 0.023	0.9232 ± 0.0053
UniProt Q8WZA9	0.931 ± 0.037	0.958 ± 0.015	0.926 ± 0.014	0.957 ± 0.022	0.919 ± 0.026	0.892 ± 0.037
UniProt Q8WUQ7 and related entries	0.9496 ± 0.0053	0.98 ± 0.016	1.05 ± 0.012	1.11 ± 0.0066	1.14 ± 0.054	1.22 ± 0.061
UniProt Q8WVK2 and related entries	1.16 ± 0.13	1.11 ± 0.16	1.1 ± 0.16	1.16 ± 0.21	1.07 ± 0.13	1.11 ± 0.19
UniProt Q8WVQ1 and related entries	1.03 ± 0.11	1.03 ± 0.15	1.01 ± 0.096	1 ± 0.095	0.992 ± 0.083	0.963 ± 0.093
UniProt Q92845 and related entries	0.992 ± 0.07	0.992 ± 0.086	1.04 ± 0.13	1.05 ± 0.091	0.997 ± 0.037	1.01 ± 0.11
UniProt Q8TEQ0 and related entries	0.977 ± 0.038	1.04 ± 0.025	1.01 ± 0.018	1 ± 0.039	0.987 ± 0.048	1 ± 0.069
UniProt Q96AG3 and related entries	0.99 ± 0.18	0.971 ± 0.12	0.956 ± 0.083	0.929 ± 0.029	0.901 ± 0.053	0.958 ± 0.085
UniProt Q92530 and related entries	0.964 ± 0.053	0.941 ± 0.026	0.943 ± 0.075	0.901 ± 0.052	0.915 ± 0.051	0.916 ± 0.029
UniProt Q8TCF1 and related entries	0.939 ± 0.072	0.959 ± 0.057	0.943 ± 0.041	0.96 ± 0.016	0.893 ± 0.048	0.907 ± 0.06
UniProt Q92581-3|Q92581-2	0.952 ± 0.13	1.02 ± 0.079	1.02 ± 0.11	1.03 ± 0.1	0.922 ± 0.1	1.02 ± 0.15
UniProt Q96BD5 and related entries	1.018 ± 0.0095	0.969 ± 0.037	1.03 ± 0.063	0.997 ± 0.077	1.03 ± 0.044	0.996 ± 0.033
UniProt Q8TF05 and related entries	1.02 ± 0.038	0.983 ± 0.019	0.94 ± 0.036	0.948 ± 0.087	0.935 ± 0.033	0.899 ± 0.046

Looked up one by one from the entries so far, 4 records:
Target	NP40-soluble protein abundance (concentration: 1mM)	NP40-soluble protein abundance (concentration: 2mM)	NP40-soluble protein abundance (concentration: 4mM)	NP40-soluble protein abundance (concentration: 6mM)	NP40-soluble protein abundance (concentration: 8mM)	NP40-soluble protein abundance (concentration: 10mM)
ARPC1A (UniProt Q92747)	1.01 ± 0.15	1.05 ± 0.12	1.05 ± 0.1	0.939 ± 0.11	1.01 ± 0.038	1.03 ± 0.038
CHMP7 (UniProt Q8WUX9)	0.977 ± 0.055	0.967 ± 0.046	0.933 ± 0.028	0.9584 ± 0.0079	0.91 ± 0.023	0.9232 ± 0.0053
UniProt Q8WZA9	0.931 ± 0.037	0.958 ± 0.015	0.926 ± 0.014	0.957 ± 0.022	0.919 ± 0.026	0.892 ± 0.037
UniProt Q92674	1.1 ± 0.15	1.04 ± 0.2	1.3 ± 0.35	1.17 ± 0.37	1.35 ± 0.62	1.29 ± 0.38
